Source: publication doi:10.1101/2024.01.27.577582
These are yes or no findings as the source states them, for the method shown. Binding seen in cells or lysates may run through a third protein. Sequences can lack the tags named with a protein.

Biological target: T1, KSHV ORF57 protein (Kaposi's sarcoma-associated herpesvirus (KSHV)) (UniProt Q2HR75)
T1 sequence: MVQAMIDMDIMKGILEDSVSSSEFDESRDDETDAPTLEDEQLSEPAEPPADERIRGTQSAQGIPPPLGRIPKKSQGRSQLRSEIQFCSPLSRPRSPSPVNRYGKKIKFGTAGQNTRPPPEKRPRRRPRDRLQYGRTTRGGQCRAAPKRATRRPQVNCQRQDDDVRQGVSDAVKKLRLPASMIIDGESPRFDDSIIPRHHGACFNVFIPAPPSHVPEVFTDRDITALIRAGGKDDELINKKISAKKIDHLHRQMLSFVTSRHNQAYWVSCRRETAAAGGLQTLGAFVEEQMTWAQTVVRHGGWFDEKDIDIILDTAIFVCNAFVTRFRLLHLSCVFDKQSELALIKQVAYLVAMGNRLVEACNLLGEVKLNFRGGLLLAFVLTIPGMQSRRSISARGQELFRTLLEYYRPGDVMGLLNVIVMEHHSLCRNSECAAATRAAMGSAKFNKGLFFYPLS
Test: co-IP; total lysate (RIPA) of HEK293T cells co-transfected with ORF57 and AEN-FLAG-myc vectors for 24 h; IP with anti-ORF57 or anti-myc antibody on protein A beads in 1 x IP buffer overnight at 4°C; Western blot

B1: AEN-FLAG-myc (apoptosis enhancing nuclease) (enzyme, UniProt Q8WTP8 1-325)
chain: MVPREAPESAQCLCPSLTIPNAKDVLRKRHKRRSRQHQRFMARKALLQEQGLLSMPPEPGSSPLPTPFGAATATEAASSGKQCLRAGSGSAPCSRRPAPGKASGPLPSKCVAIDCEMVGTGPRGRVSELARCSIVSYHGNVLYDKYIRPEMPIADYRTRWSGITRQHMRKAVPFQVAQKEILKLLKGKVVVGHALHNDFQALKYVHPRSQTRDTTYVPNFLSEPGLHTRARVSLKDLALQLLHKKIQVGQHGHSSVEDATTAMELYRLVEVQWEQQEARSLWTCPEDREPDSSTDMEQYMEDQYWPDDLAHGSRGGAREAQDRRN
binding: no binding
